Data: publication PMC6179991
Results are given in words; binding and its absence hold for the method and conditions named. In cells and extracts the contact can be indirect. Binding can be weak; no strength is given. Tags and fused reporters may be left off the sequences shown.

Biological target: rat EED-V5-His (pcDNA3.1-rEED-V5-His) (rat) (UniProt B5DF02)
Assay: co-IP; HEK293T cells transfected with pcDNA3.1-rEED-V5-His, LVI-Flag-HA-mSirt1 or both; lysis in 25 mM Tris pH 7.4, 150 mM NaCl, 1 mM EDTA, 1 mM EGTA, 1% Triton X-100; immunoprecipitation with V5 or HA antibody and protein A agarose overnight at 4 °C; blots probed for V5 or HA (reciprocal)

binding: binds
B1: Mouse Sirt1-FLAG-HA (Sirtuin 1) (enzyme, UniProt Q923E4-1 1-737)
chain: MADEVALALQAAGSPSAAAAMEAASQPADEPLRKRPRRDGPGLGRSPGEPSAAVAPAAAGCEAASAAAPAALWREAAGAAASAEREAPATAVAGDGDNGSGLRREPRAADDFDDDEGEEEDEAAAAAAAAAIGYRDNLLLTDGLLTNGFHSCESDDDDRTSHASSSDWTPRPRIGPYTFVQQHLMIGTDPRTILKDLLPETIPPPELDDMTLWQIVINILSEPPKRKKRKDINTIEDAVKLLQECKKIIVLTGAGVSVSCGIPDFRSRDGIYARLAVDFPDLPDPQAMFDIEYFRKDPRPFFKFAKEIYPGQFQPSLCHKFIALSDKEGKLLRNYTQNIDTLEQVAGIQRILQCHGSFATASCLICKYKVDCEAVRGDIFNQVVPRCPRCPADEPLAIMKPEIVFFGENLPEQFHRAMKYDKDEVDLLIVIGSSLKVRPVALIPSSIPHEVPQILINREPLPHLHFDVELLGDCDVIINELCHRLGGEYAKLCCNPVKLSEITEKPPRPQKELVHLSELPPTPLHISEDSSSPERTVPQDSSVIATLVDQATNNNVNDLEVSESSCVEEKPQEVQTSRNVENINVENPDFKAVGSSTADKNERTSVAETVRKCWPNRLAKEQISKRLEGNQYLFVPPNRYIFHGAEVYSDSEDDVLSSSSCGSNSDSGTCQSPSLEEPLEDESEIEEFYNGLEDDTERPECAGGSGFGADGGDQEVVNEAIATRQELTDVNYPSDKS
